Reference: the supplement of paper PMC5949888
Most values lie at the floor of the assay. Slopes are relative: functional sequences can read slightly below zero.

Test system: Saccharomyces cerevisiae PS128 hsf1 delta, HSF1(1-493) fusion
Experiment: growth estimate (transactivation domain function in HSF1 fusion, heat-shock survival) (a.u. (slope of normalised read count over time)); higher = stronger growth at 37°C, i.e. more transactivation activity
Settings: library: random library

With LNKLWHCRTIFERIDIHTMR as the substance, how does the growth estimate read?
The growth estimate was < -0.25.

With LNKVFRVLVQPRLQSHVVFT as the substance, how does the growth estimate read?
Its growth estimate is < -0.25.

How did the growth estimate turn out when LNLGNFDKLIKLRVA was run?
The growth estimate was < -0.25.

With LNLRMSRPGNVARAPSPLES as the substance, how does the growth estimate read?
The growth estimate was < -0.25.

How did the growth estimate turn out when LNLVK was run?
Its growth estimate is < -0.25.

Which growth estimate does the source give for LNNEALPRPPGWRPHRLRSS here?
The growth estimate was < -0.25.

LNPQRSQQHGPV was tested. Which growth estimate did it give?
Its growth estimate is < -0.25.

Which growth estimate does the source give for LNPVSKTDQPERDVMRWFSA here?
The growth estimate was < -0.25.

For LNRVML, which growth estimate is on record?
Its growth estimate is < -0.25.

How did the growth estimate turn out when LNSIVVGEQETIRTRA was run?
Its growth estimate is < -0.25.

For LNSRCRVSCGFDAFVLAIAS, which growth estimate is on record?
Its growth estimate is < -0.25.

With LNSSYPGRSGAE as the substance, how does the growth estimate read?
The growth estimate was < -0.25.

Which growth estimate does the source give for LNTALIGG here?
Its growth estimate is < -0.25.

For LNTF, which growth estimate is on record?
The growth estimate was < -0.25.

How did the growth estimate turn out when LNYRPARTYWSLSETGVSRV was run?
The growth estimate was < -0.25.

LPAARSMG was tested. Which growth estimate did it give?
The growth estimate was < -0.25.

Which growth estimate does the source give for LPCHFAERLRAKSPTTKSSS here?
Its growth estimate is < -0.25.

LPDDVHHIPSW was tested. Which growth estimate did it give?
The growth estimate was < -0.25.

For LPEYQAIGYILQGITFLQDE, which growth estimate is on record?
The growth estimate was < -0.25.

With LPFHATGRDSD as the substance, how does the growth estimate read?
The growth estimate was < -0.25.

How did the growth estimate turn out when LPFLVFRITKVSARGQSVRG was run?
The growth estimate was -0.237.

With LPFNLSLCSGQQGGAELHAM as the substance, how does the growth estimate read?
Its growth estimate is < -0.25.

How did the growth estimate turn out when LPG was run?
The growth estimate was < -0.25.

Which growth estimate does the source give for LPGGSLTRHGLFVGASLRNS here?
The growth estimate was < -0.25.

How did the growth estimate turn out when LPGLLRRLRVRIASSNW was run?
Its growth estimate is < -0.25.

Which growth estimate does the source give for LPGLLTSCPLTQCAGWNFTS here?
Its growth estimate is < -0.25.

With LPGNLLQ as the substance, how does the growth estimate read?
The growth estimate was < -0.25.

With LPGP as the substance, how does the growth estimate read?
The growth estimate was < -0.25.

LPGRLFHWLSGPT was tested. Which growth estimate did it give?
The growth estimate was < -0.25.

How did the growth estimate turn out when LPGSPRTQPAFALQVELPTI was run?
Its growth estimate is < -0.25.

Which growth estimate does the source give for LPHLRSSSEPFEQARNCIRR here?
Its growth estimate is < -0.25.

For LPIVYLWPS, which growth estimate is on record?
The growth estimate was < -0.25.

Which growth estimate does the source give for LPIWLGSLTNRASLVLPRPA here?
Its growth estimate is < -0.25.

For LPKRGWW, which growth estimate is on record?
The growth estimate was < -0.25.

With LPLAP as the substance, how does the growth estimate read?
Its growth estimate is < -0.25.

Which growth estimate does the source give for LPLCVSALRHK here?
Its growth estimate is < -0.25.

With LPLDGLCSRSVARELETIWC as the substance, how does the growth estimate read?
Its growth estimate is < -0.25.

For LPLGFMQSRS, which growth estimate is on record?
The growth estimate was < -0.25.

Which growth estimate does the source give for LPLPACDR here?
The growth estimate was < -0.25.

Which growth estimate does the source give for LPNCMGWQSKPRVANGSVTR here?
The growth estimate was < -0.25.

How did the growth estimate turn out when LPNMGRRSVGTNRTSVTRLW was run?
The growth estimate was < -0.25.

LPPAPRCAVMYLSRIRLWHG was tested. Which growth estimate did it give?
Its growth estimate is < -0.25.

For LPQFCHGQLWRWAHKRPPYC, which growth estimate is on record?
Its growth estimate is < -0.25.

How did the growth estimate turn out when LPRAGTALGRHWPSTITNGA was run?
Its growth estimate is < -0.25.

With LPRDHQKSSDQRASICCGSA as the substance, how does the growth estimate read?
The growth estimate was < -0.25.

Which growth estimate does the source give for LPRRC here?
The growth estimate was < -0.25.

With LPRTSEFCCNPN as the substance, how does the growth estimate read?
Its growth estimate is < -0.25.

How did the growth estimate turn out when LPSGVAVRQGNSTPWI was run?
The growth estimate was < -0.25.

With LPSLKYASSDHIAWTPRI as the substance, how does the growth estimate read?
Its growth estimate is < -0.25.

LPTLTSPRKILRQLLNGPAW was tested. Which growth estimate did it give?
The growth estimate was < -0.25.

With LPTPGRG as the substance, how does the growth estimate read?
The growth estimate was < -0.25.

How did the growth estimate turn out when LPTRGIYSGVKTSFRLRPFL was run?
Its growth estimate is < -0.25.

How did the growth estimate turn out when LPTRGSGPHKRAEGGSGHNP was run?
Its growth estimate is < -0.25.

For LPVC, which growth estimate is on record?
Its growth estimate is < -0.25.

How did the growth estimate turn out when LPVEGRGGCWNPVFIMTETG was run?
Its growth estimate is < -0.25.

LPVFRLFDGLSPLGRPGKVV was tested. Which growth estimate did it give?
Its growth estimate is < -0.25.

For LPVGGYR, which growth estimate is on record?
Its growth estimate is < -0.25.

Which growth estimate does the source give for LPVITLRNPQMRASLNKPLS here?
Its growth estimate is < -0.25.

With LQAPSSAIGNSA as the substance, how does the growth estimate read?
The growth estimate was < -0.25.

For LQFSGQPSCRGGGSISNGRP, which growth estimate is on record?
Its growth estimate is < -0.25.

LQG was tested. Which growth estimate did it give?
The growth estimate was < -0.25.

Which growth estimate does the source give for LQGEVL here?
The growth estimate was < -0.25.

How did the growth estimate turn out when LQGKAMRIRVKVGRLLEAFV was run?
The growth estimate was < -0.25.

Which growth estimate does the source give for LQIPCALVF here?
Its growth estimate is < -0.25.

LQISDCRTTADHLKIGR was tested. Which growth estimate did it give?
Its growth estimate is < -0.25.

For LQIYSRPDSRIVPNGLVMRL, which growth estimate is on record?
Its growth estimate is < -0.25.

LQKLSSVGVYP was tested. Which growth estimate did it give?
Its growth estimate is < -0.25.

For LQKSWRFRWRGGGGGTQP, which growth estimate is on record?
The growth estimate was < -0.25.

Which growth estimate does the source give for LQLAPRGKSIYS here?
The growth estimate was < -0.25.

How did the growth estimate turn out when LQLPPPIPPWFSKSSGARHA was run?
The growth estimate was < -0.25.

How did the growth estimate turn out when LQMCD was run?
Its growth estimate is < -0.25.

LQNQGLVSFLCVPCAILHSN was tested. Which growth estimate did it give?
Its growth estimate is < -0.25.

How did the growth estimate turn out when LQPGSVDGWEERFMNSAVAI was run?
The growth estimate was < -0.25.

Which growth estimate does the source give for LQPKISRIA here?
Its growth estimate is < -0.25.

Which growth estimate does the source give for LQQWVFI here?
The growth estimate was < -0.25.

LQRGTCRTSRNPA was tested. Which growth estimate did it give?
Its growth estimate is < -0.25.

How did the growth estimate turn out when LQRQEGSSRVDIA was run?
Its growth estimate is < -0.253.

Which growth estimate does the source give for LQRRFVWFDPGRPGEGICVC here?
The growth estimate was < -0.25.

For LQTALIL, which growth estimate is on record?
The growth estimate was < -0.25.

How did the growth estimate turn out when LQWGKPRHNVFTMCSGTIKR was run?
Its growth estimate is < -0.25.

Which growth estimate does the source give for LQWWHLDSIPQLQVGSEDSD here?
Its growth estimate is < -0.25.

With LQYPSDPWALATGGMNNGQT as the substance, how does the growth estimate read?
The growth estimate was 0.037.

LRA was tested. Which growth estimate did it give?
Its growth estimate is < -0.25.

For LRARVHSVSGHFAQAMRAAT, which growth estimate is on record?
Its growth estimate is < -0.25.

With LRAV as the substance, how does the growth estimate read?
The growth estimate was < -0.25.

For LRCCG, which growth estimate is on record?
Its growth estimate is < -0.25.

Which growth estimate does the source give for LRCDSDGESASCE here?
The growth estimate was < -0.25.

How did the growth estimate turn out when LRCGSATTLKITLGP was run?
The growth estimate was < -0.25.

Which growth estimate does the source give for LRCLSIKRMI here?
Its growth estimate is < -0.25.

LRCSVRGLCNLHLESRISNA was tested. Which growth estimate did it give?
Its growth estimate is < -0.25.

Which growth estimate does the source give for LRCVCSKFASVNHI here?
The growth estimate was < -0.25.

How did the growth estimate turn out when LRCWRCYARFRKTWGLLTLD was run?
The growth estimate was < -0.25.

LRDFTWLANICQFCYRVHYG was tested. Which growth estimate did it give?
Its growth estimate is < -0.25.

With LRDSARSKLW as the substance, how does the growth estimate read?
The growth estimate was < -0.25.

How did the growth estimate turn out when LRDSRDERVVRLLQCFALNR was run?
Its growth estimate is < -0.25.

How did the growth estimate turn out when LREGPAD was run?
The growth estimate was < -0.25.

How did the growth estimate turn out when LREILMGGG was run?
Its growth estimate is < -0.25.

With LREIRTRFGIDETCWGRREL as the substance, how does the growth estimate read?
The growth estimate was < -0.25.

LRENPLAVSRRIEKTTALMA was tested. Which growth estimate did it give?
Its growth estimate is < -0.25.

How did the growth estimate turn out when LRERYAGLELADNGCDRLG was run?
The growth estimate was < -0.25.
